Key:
[1] = test system: A549; assay: Antiproliferative activity, CellTiter-Glo assay; format: cell-based, human; details: read-out: IC50 (72 Hours) A549, 72 h incubation, triplicate
[2] = test system: MCF-7; assay: Antiproliferative activity, CellTiter-Glo assay; format: cell-based, human; details: read-out: IC50 (72 Hours) MCF-7, 72 h incubation, triplicate

## COc1cccc2c1C(=O)c1c(O)c3c(c(O)c1C2=O)C[C@@](O)(C(=O)CO)C[C@@H]3O[C@H]1C[C@H](N)[C@H](O)[C@H](C)O1 [Free Dox, Doxorubicin]
[1]
  IC50: 490 ± 79 nM
[2]
  IC50: 316 ± 165 nM

Reference: article PMC8751737 (International journal of pharmaceutics, 2021)
